Measured values from publication PMC4100136.

What was measured:
[1] = target: ThbZIP2 (Tamarix hispida) (UniProt I7CU82); test: two-hybrid; ThbZIP1 in pGADT7-Rec2 as prey, the other ThbZIPs in pGBKT7 (GAL4 DNA-binding domain) as baits; Y2H Gold yeast grown on SD/-Trp-Leu and SD/-Ade-Trp-Leu/-His/X-α-Gal
[2] = target: ThbZIP4 (Tamarix hispida) (UniProt I7C781); test: as above
[3] = target: ThbZIP7 (Tamarix hispida) (UniProt I7D4A7); test: as above
[4] = target: ThbZIP1 (Tamarix hispida) (UniProt C0LQL1); test: two-hybrid; ThbZIP1 in pGBKT7 (GAL4 DNA-binding domain) as bait, ThbZIP1 and the other five ThbZIPs in pGADT7 as prey; yeast grown on SD/-Trp-Leu and SD/-Ade-Trp-Leu/-His/X-α-Gal

| binding [1] | binding [2] | binding [3] | binding [4] | Substance |
| --- | --- | --- | --- | --- |
| binds | binds | binds |  | ThbZIP1 (from UniProt C0LQL1) |
|  |  |  | binds | ThbZIP2 (from UniProt I7CU82) |
|  |  |  | binds | ThbZIP4 (from UniProt I7C781) |
|  |  |  | binds | ThbZIP7 (from UniProt I7D4A7) |

These are yes or no findings as the source states them, for the method shown. Binding calls can cover weak binding; strength is not graded here.
